Measurements from “University of Dundee, Small-Polar-MMV Screening Library” (2021), ChEMBL document CHEMBL3988442.

The chains behind the UniProt entries cited, without tags or fusion partners.
UniProt E9BF75, entry or part of it: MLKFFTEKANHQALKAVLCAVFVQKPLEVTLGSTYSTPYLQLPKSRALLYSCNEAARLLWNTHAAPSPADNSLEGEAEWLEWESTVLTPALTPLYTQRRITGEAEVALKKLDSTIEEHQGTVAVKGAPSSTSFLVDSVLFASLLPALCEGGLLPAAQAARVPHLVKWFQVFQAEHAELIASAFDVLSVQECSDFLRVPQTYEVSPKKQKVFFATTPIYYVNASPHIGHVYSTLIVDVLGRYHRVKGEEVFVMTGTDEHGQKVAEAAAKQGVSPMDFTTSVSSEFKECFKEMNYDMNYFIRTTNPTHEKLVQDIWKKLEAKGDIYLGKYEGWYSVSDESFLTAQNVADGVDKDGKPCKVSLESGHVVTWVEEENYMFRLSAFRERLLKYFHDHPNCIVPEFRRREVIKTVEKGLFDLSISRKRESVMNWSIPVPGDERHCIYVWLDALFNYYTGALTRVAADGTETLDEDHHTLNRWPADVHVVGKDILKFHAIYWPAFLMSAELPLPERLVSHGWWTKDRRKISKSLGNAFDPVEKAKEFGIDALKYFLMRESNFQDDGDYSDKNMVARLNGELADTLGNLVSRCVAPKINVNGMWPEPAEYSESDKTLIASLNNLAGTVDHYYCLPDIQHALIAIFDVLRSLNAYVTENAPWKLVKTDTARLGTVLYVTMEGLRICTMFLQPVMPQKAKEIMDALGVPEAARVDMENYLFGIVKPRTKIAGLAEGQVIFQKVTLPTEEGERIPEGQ

A: 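Assay on Mycobacterium tuberculosis, filed only as a heat shock assay from Cornell; the read-out is not stated. The concentration is filed as 10 mM, unlikely as a test dose, so the dose is not known. Direction is inferred from retests: higher values go with stronger inhibition. Size under these conditions: about 69,000 compounds, about 930 of them at 50% or above in at least one test.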
B: 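Primary screen of methionyl-tRNA synthetase; the read-out is not stated. Target: Methionyl-tRNA synthetase (putative), Leishmania donovani (UniProt E9BF75). The test concentration is not given. The values are filed as inhibition. About 68,000 compounds were tested under these conditions; 0.035% (about 24) showed 50% or more at least once.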
C: 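Whole-cell assay for inhibitors of Mycobacterium tuberculosis growth, labelled Cornell in the record; the read-out is not stated. The concentration is filed as 10 mM, unlikely as a test dose, so the dose is not known. The record gives no direction; compounds strong in two other growth screens of this library score well above the rest, so higher reads as stronger inhibition. Size under these conditions: about 53,000 compounds, about 900 of them at 50% or above in at least one test.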

Results are percentages, as filed. The controls that fix the scale are not given in the record; negative values are as filed. This is an unselected part of the compounds tested. A dash means the value is not listed here; it may have been measured.

{"structure": "Cc1cccc(N(CCC(N)=O)CC(=O)Nc2cc(Cl)ccc2Cl)c1", "A": -20.59, "B": 13.19, "C": 25.29}
{"structure": "O=C(O)C(F)(F)F.[H][C@@]12CCN(S(C)(=O)=O)C[C@]1(C(=O)NCc1ccccn1)CCO2", "A": 65.18, "C": 1.438}
{"structure": "CS(=O)(=O)N1CC[C@H]2OCC[C@@]2(C(=O)NCCc2ccccn2)C1", "B": 10.34}
{"structure": "Cc1ccc(NC2CCN(C(=O)c3cccc4[nH]ncc34)CC2)nn1", "A": 4.77, "B": 12.65}
{"structure": "Cc1cc(N(C)C)nc(C2COCCN2Cc2cscn2)n1", "stereo": "configuration not stated", "A": -21, "B": 6.604, "C": 4.965}
{"structure": "Cc1cnn(C2CCCN(C(=O)Cc3n[nH]c4ccccc34)C2)c1", "stereo": "configuration not stated", "A": -23.14, "B": 10.24}
{"structure": "Cc1ccccc1OCCC(=O)N(C)Cc1c(C)noc1C", "A": -2.811, "B": 11.59, "C": -11.8}
{"structure": "COc1ccc(CNC(=O)N2CCN(C)[C@@H]3CS(=O)(=O)C[C@@H]32)cc1", "B": 7.949}
{"structure": "Cc1cc(NCCCC(F)(F)F)n2nc(C)cc2n1", "A": 87.73, "B": 3.581, "C": 48.1}
{"structure": "CCn1cc(CN2CCCC(COc3ccc(F)cc3)C2)cn1", "stereo": "configuration not stated", "A": -6.54, "B": 14.75, "C": 40.07}
{"structure": "CN(C)C(=O)CN1CCC2(C1)CN(CC1CCOC1)C2.O=C(O)C(F)(F)F.O=C(O)C(F)(F)F", "stereo": "configuration not stated", "A": -23.8, "C": -16.37}
{"structure": "CC(C)(C)NC(=O)CN1CCNCC1.Cl.Cl", "A": -37.99, "C": -38.03}
{"structure": "CN1Cc2c(C(=O)Nc3cccnc3)ncn2-c2ccccc2S1(=O)=O", "B": 16.5}
{"structure": "COC(=O)c1ccccc1S(=O)(=O)NC(=O)c1cccc2c1OCCO2", "A": -1.736, "B": 11.38, "C": -3.436}
{"structure": "CCCC(=O)N(C)Cc1cccc(OC(C)C)c1", "A": 8.555, "B": -4.396, "C": -22.47}
{"structure": "CN(C)S(=O)(=O)Nc1ccc(Oc2ccc3c(c2)OCO3)cc1", "A": -6.473, "B": 8.065, "C": 17.75}
{"structure": "Cc1nc(CCN(C)C(=O)CN2C(=O)OC[C@@H]2c2ccccc2)no1", "A": -14.72, "B": 14.03, "C": 31.34}
{"structure": "CN(C)CC1CN(c2cnc3ccccc3n2)CCO1", "stereo": "configuration not stated", "A": 21.29, "B": 13.62, "C": -10.68}
{"structure": "CCc1ncc(C(=O)N2CCC(Nc3ccc(C)nn3)CC2)s1", "A": -8.928, "B": 24.57, "C": -14.28}
{"structure": "Cc1ccc(NC(=O)C2CSCN2C(=O)c2cc[nH]n2)c(C)c1", "stereo": "configuration not stated", "A": 13.84, "B": 12.27, "C": 20.19}
{"structure": "[H][C@]12CCCCN1CCC[C@H]2CCC(=O)NCc1cc(O)nc(C)n1", "A": 10.63}
{"structure": "CC(=O)N1CCCCCC1C1CCN(Cc2nc(C(C)C)no2)CC1", "stereo": "configuration not stated", "B": 0.2597}
{"structure": "CC(=O)N1CCN([C@@H]2CC[C@@H](NC(=O)c3cc(C)cs3)[C@H]2O)CC1", "A": -2.57, "B": 16.95, "C": 10.39}
{"structure": "Cc1ncsc1CNc1cccc(OCCN2CCCC2)c1", "A": -0.4882, "B": 11.54, "C": 16.77}
{"structure": "COc1coc(CN2CCCC3(CCC(=O)N(CC4CC4)C3)C2)cc1=O", "stereo": "configuration not stated", "A": 7.177, "B": 15.33}
{"structure": "C[C@H](NC(=O)C1CC1)c1nc2cc(-c3ccc(F)cc3)ncn2n1", "A": 5.22, "B": 9.003, "C": -1.681}
{"structure": "Cc1cc(C)n(-c2ccccc2NC(=O)NCCS(=O)(=O)CC(C)C)n1", "A": 17.16, "B": 2.558, "C": 0.2505}
{"structure": "CN1CCN(Cc2cnc3n2CCN(Cc2cccs2)C3)CC1", "B": 21.21}
{"structure": "CN1CCC(c2nnc3n2CCN(S(=O)(=O)c2ccccc2Cl)C3)CC1", "A": -6.494, "B": 19.31, "C": -18.53}
{"structure": "[H][C@@]12CS(=O)(=O)C[C@]1([H])N(C(=O)c1cnccn1)CCN2C(=O)C1CCC1", "A": -6.549}

Repeated from the top, 3 entries:

structure,A,B,C
Cc1cccc(N(CCC(N)=O)CC(=O)Nc2cc(Cl)ccc2Cl)c1,-20.59%,13.19%,25.29%
O=C(O)C(F)(F)F.[H][C@@]12CCN(S(C)(=O)=O)C[C@]1(C(=O)NCc1ccccn1)CCO2,65.18%,-,1.438%
CS(=O)(=O)N1CC[C@H]2OCC[C@@]2(C(=O)NCCc2ccccn2)C1,-,10.34%,-